Patent publication US20160304584A1, “MAFB MUTANTS AND USES THEREOF” (INSERM (INSTITUT NATIONAL DE LA SANTÉ ET DE LA …, published 2016)
No constants are given. Whether binding was seen depends on the method and setting. Some binding calls cover weakened binding; strength is not graded here.

The chains behind the UniProt entries cited, without tags or fusion partners. Where a name states a change or a piece, a line headed by the entry shows the natural chain unless it says otherwise. Residues count along the entry.
UniProt P01101, residues 138-200: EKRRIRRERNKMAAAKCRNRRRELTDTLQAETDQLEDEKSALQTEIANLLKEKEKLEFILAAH
UniProt P54841: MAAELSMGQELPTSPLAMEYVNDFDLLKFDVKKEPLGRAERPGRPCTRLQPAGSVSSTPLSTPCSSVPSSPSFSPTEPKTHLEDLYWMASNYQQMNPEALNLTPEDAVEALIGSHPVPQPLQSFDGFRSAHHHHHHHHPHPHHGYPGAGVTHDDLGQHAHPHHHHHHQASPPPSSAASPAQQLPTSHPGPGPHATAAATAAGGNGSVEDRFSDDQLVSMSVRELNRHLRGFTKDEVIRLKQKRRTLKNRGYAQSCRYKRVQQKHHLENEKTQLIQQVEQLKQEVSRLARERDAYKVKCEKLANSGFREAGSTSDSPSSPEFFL

How the values were obtained:
[1] = biological target: c-Fos fragment from Mus musculus (residues 138-200), encompassing the BR and Zip segment (Mus musculus) (UniProt P01101); experiment: EMSA on T-MARE(beta)
[2] = biological target: c-Fos fragment from Mus musculus (residues 138-200), encompassing the BR and Zip segment (Mus musculus) (UniProt P01101); experiment: EMSA with c-Fos titration
[3] = biological target: MafB (E269R) mutant, recombinant protein (Mus musculus) (UniProt P54841); experiment: EMSA, equimolar MafB (E269R) and c-Fos
[4] = biological target: MafB (E269R) mutant, recombinant protein (Mus musculus) (UniProt P54841); experiment: EMSA on T-MARE(gamma)
[5] = biological target: MafB (V277N) mutant, recombinant protein (Mus musculus) (UniProt P54841); experiment: EMSA on a T-MARE probe

Row | binding [1] | binding [2] | binding [3] | binding [4] | binding [5] | Substance
1 | binds | binds | binds | binds |  | MafB (E269R) mutant, recombinant protein (from UniProt P54841 211-305)
2 |  |  |  |  | binds | MafB (V277N) mutant, recombinant protein (from UniProt P54841 211-305)
